# Some results were stated once for a whole list of compounds, not compound by compound.
# Tested on: hypomyelinated optic nerves from Shiverer mice (shi^−/−)
# Test: Compound action potential (CAP) of dissected hypomyelinated optic nerve
# Type: cell-based, mouse
# Conditions: compared with 4-AP and 3-F-4-AP
# Experimental: In order to determine if the drugs could also be effective in enhancing compound action potentials (CAP), the effects of these compounds on the CAP of hypomyelinated optic nerves from Shiverer mice (shi^−/−) and control mice (shi^+/−, shi^+/+) were tested. Shiverer mice lack compact myelin in the CNS due to a null mutation of the myelin basic protein gene (MBP).
# optic nerves were dissected from 12-16 week old Shiverer (shi^−/−) and control mice (shi^+/− and shi^+/+). Mice were euthanized by CO2 overdose and the optic nerves were quickly dissected between the eyeball and the optic chiasm. […]
# compound action potentials (CAP) from hypomyelinated nerves (Shiverer mice, shi^−/−) and myelinated nerves (litermate controls, shi^+/− and shi^+/+) were recorded using suction electrodes as described by Stys et al. Briefly, the dissected optic nerve was placed inside a chamber containing oxygenated (5% CO2, 95% O2) aCSF (300 μL) between two suction electrodes (stimulus and recording electrodes) forming a tight seal on each end. […] The study was conducted at 22.2±1.3° C. to allow for slower conduction and the temperature was monitored throughout the experiment. […] The half-maximal effective concentration (EC50) for each drug was calculated by plotting the final over initial amplitude vs. concentration and fitted to the Hill equation using Origin. […]
row,SMILES,times less potent (in enhancing the CAP)
1,"Nc1ccncc1CF [3-MeF-4-AP, 3-fluoromethyl-4-aminopyridine]",4-6 times
2,"Nc1ccncc1CO [3-MeOH-4-AP, 3-methanol-4-aminopyridine, reference compound]",4-6 times

# From US10442767B2 (priority 2012, dated 2019)
